For 19 compounds, T/C and survivor count results are on record in PubChem BioAssay AID220 (DTP/NCI, 2004).

The structures appear in SMILES notation. The list does not hold the whole screen: it is rich in T/C values a quarter to a half above the control, in often repeated tests (any T/C) and in doses without a T/C. Other doses and runs of a compound stand elsewhere. T/C: endpoint of the treated group in % of that of the vehicle group. Schedules are NCI's codes, taken here to give the interval after Q, in days (D) or hours (H), and the number of doses after X. Some T/C values are followed by the survivors on the day toxicity was checked, most often the fifth; where none is given, no animal had died by that day. Some doses have a count of surviving animals in place of a T/C: the source files T/C as zero there, which appears to mark a toxic dose or a test without result, not a measured value. Survivors were counted at the toxicity check, usually on the fifth day, unless a day is given; later deaths do not show. Some entries were tested several times; their values stand side by side, smallest first.

The test system of the test is CD8F1 mice, subcutaneous mammary adenocarcinoma, T/C%. Briefly: NCI In Vivo Anticancer Drug Screen. Data for tumor model Mammary Adenocarcinoma CD8F1 (subcutaneous) in CD8F1. Conditions: higher T/C = larger tumour. The gist of the method:
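Compound-treated versus vehicle-treated mice with transplantable tumors; survival or tumor size compared as T/C.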

Setting [1] is: T/C endpoint: median tumor weight change, dose: 250.0 mg/kg/injection, schedule: Q01DX001 (ip), vehicle: saline with Tween-80.
Setting [2] is: T/C endpoint: median tumor weight change, dose: 500.0 mg/kg/injection, schedule: Q01DX001 (ip), vehicle: saline with Tween-80.
The mark [3] stands for this setting: T/C endpoint: median tumor weight change, dose: 1000.0 mg/kg/injection, schedule: Q01DX001 (ip), vehicle: saline with Tween-80.
The mark [4] stands for this setting: T/C endpoint: median tumor weight (est.), dose: 200.0 mg/kg/injection, schedule: Q07DX005 (ip), vehicle: saline with Tween-80.
Where [5] appears, read: T/C endpoint: median tumor weight (est.), dose: 25.0 mg/kg/injection, schedule: Q07DX005 (ip), vehicle: saline with Tween-80, evaluated on day 30.

Regarding `CN1C(=O)NC(c2ccc(Cl)cc2)(c2ccc(Cl)cc2)C1=O`, the T/C was 136 % of control (T/C endpoint: median tumor weight (est.), dose: 50.0 mg/kg/injection, schedule: Q07DX005 (ip), vehicle: distilled water + Tween-80, evaluated on day 30) and 145 % of control (T/C endpoint: median tumor weight (est.), dose: 200.0 mg/kg/injection, schedule: Q07DX005 (ip), vehicle: distilled water + Tween-80, evaluated on day 30). Further, the survivor count is recorded as 6 of 10 on day 30 (T/C endpoint: median tumor weight (est.), dose: 400.0 mg/kg/injection, schedule: Q07DX005 (ip), vehicle: distilled water + Tween-80); 2 of 10 on day 30 (T/C endpoint: median tumor weight (est.), dose: 800.0 mg/kg/injection, schedule: Q07DX005 (ip), vehicle: distilled water + Tween-80); 0 of 10 on day 30 (T/C endpoint: median tumor weight change, dose: 2000.0 mg/kg/injection, schedule: Q01DX001 (ip), vehicle: distilled water + Tween-80).

As to `COc1cc2cc(c1Cl)N(C)C(=O)CC(OC(=O)CC(C)C)C1(C)OC1C(C)C1CC(O)(NC(=O)O1)C(OC)/C=C/C=C(C)C2` (configuration not stated), the T/C (T/C endpoint: median tumor weight (est.), dose: 9.3 micrograms/kg/injection, schedule: Q07DX005 (ip), vehicle: saline + alcohol, evaluated on day 30) is 147 % of control [9 of 10 alive].

On to `CN(C)c1nc(N(C)C)nc(N(C)C)n1`, for which the T/C runs as follows: (T/C endpoint: mean tumor weight, dose: 400.0 mg/kg/injection, schedule: Q07DX006 (ip), vehicle: saline, evaluated on day 38) 139 % of control [7 of 10 alive]; (T/C endpoint: median tumor weight (est.), dose: 12.5 mg/kg/injection, schedule: Q07DX005 (ip), vehicle: saline with Tween-80, evaluated on day 30) 139 % of control [8 of 10 alive]; (T/C endpoint: median tumor weight change, dose: 200.0 mg/kg/injection, schedule: Q01DX001 (ip), vehicle: acid diluted with saline, evaluated on day 35) 131 % of control. Moreover, the survivor count is, setting by setting: (T/C endpoint: mean tumor weight, dose: 750.0 mg/kg/injection, schedule: Q07DX006 (ip), vehicle: saline) 3 of 10; (T/C endpoint: median tumor weight (est.), dose: 400.0 mg/kg/injection, schedule: Q07DX005 (ip), vehicle: saline with Tween-80) 3 of 10; (T/C endpoint: median tumor weight (est.), dose: 512.0 mg/kg/injection, schedule: Q07DX005 (ip), vehicle: acid diluted with saline) 4 of 10 on day 30; (T/C endpoint: median tumor weight (est.), dose: 512.0 mg/kg/injection, schedule: Q07DX005 (ip), vehicle: saline with Tween-80) 3 of 10 and 5 of 10; (T/C endpoint: median tumor weight change, dose: 1600.0 mg/kg/injection, schedule: Q01DX001 (ip), vehicle: acid diluted with saline) 1 of 10 on day 35 and 2 of 10 on day 33.

With `CC[n+]1ccc(Nc2ccc(NC(=O)c3ccc(C(=O)Nc4ccc(Nc5cc[n+](CC)c(N)n5)cc4)cc3)cc2)nc1N`, the T/C (T/C endpoint: median tumor weight (est.), dose: 12.5 mg/kg/injection, schedule: Q07DX005 (ip), vehicle: suspension in saline, evaluated on day 30) is 130 % of control.

On to `C=C(C)/C([O-])=N/[N+](C)(C)CC(O)CCCCCCCCCCCC` (configuration not stated), for which the survivor count (T/C endpoint: median tumor weight change, dose: 500.0 mg/kg/injection, schedule: Q01DX001 (ip), vehicle: saline) is reported as 6 of 10 on day 25; the survivor count (T/C endpoint: median tumor weight change, dose: 1000.0 mg/kg/injection, schedule: Q01DX001 (ip), vehicle: saline) is 0 of 10 on day 25; the survivor count (T/C endpoint: median tumor weight change, dose: 2000.0 mg/kg/injection, schedule: Q01DX001 (ip), vehicle: saline) is given as 0 of 10 on day 25.

Turning to `Nc1nc2c(C(=O)N3CCCC3)nnn2c2ccccc12`, the survivor count under setting [1] is given as 0 of 10 on day 31, the survivor count under setting [2] was 0 of 10 on day 31 and the survivor count under setting [3] is 0 of 10 on day 31.

Regarding `O=C1N[C@@H]2C(=C[C@H](O)[C@@H](O)[C@H]2O)c2cc3c(c(O)c21)OCO3`, the survivor count by setting is: (T/C endpoint: median tumor weight change, dose: 25.0 mg/kg/injection, schedule: Q01DX001 (ip), vehicle: saline with Tween-80) 4 of 10 on day 28; (T/C endpoint: median tumor weight change, dose: 50.0 mg/kg/injection, schedule: Q01DX001 (ip), vehicle: saline with Tween-80) 0 of 10 on day 28.

For `O=C1NC(=O)C2C3C=CC(C12)C1C2C(=O)NC(=O)C2C31` (configuration not stated), the T/C (T/C endpoint: median tumor weight change, dose: 31.25 mg/kg/injection, schedule: Q01DX001 (ip), vehicle: saline with Tween-80, evaluated on day 29) is 140 % of control. In addition, the survivor count is 3 of 10 on day 31 (T/C endpoint: median tumor weight change, dose: 83.3 mg/kg/injection, schedule: Q01DX005 (ip), vehicle: water); 1 of 10 on day 25 (T/C endpoint: median tumor weight change, dose: 150.0 mg/kg/injection, schedule: Q01DX001 (ip), vehicle: saline); 5 of 10 on day 29 under setting [1]; 0 of 10 on day 25 (T/C endpoint: median tumor weight change, dose: 250.0 mg/kg/injection, schedule: Q01DX001 (ip), vehicle: saline); 0 of 10 on day 25 (T/C endpoint: median tumor weight change, dose: 416.7 mg/kg/injection, schedule: Q01DX001 (ip), vehicle: saline); 0 of 10 on day 29 and 1 of 10 on day 34 under setting [2]. In addition, the survivor count is given as 0 of 10 on day 34 under setting [3] and 0 of 10 on day 34 (T/C endpoint: median tumor weight change, dose: 2000.0 mg/kg/injection, schedule: Q01DX001 (ip), vehicle: saline with Tween-80).

In the case of `COc1cc(O)c2c(O)c3c(c4c2c1[C@]1(C4)C(C)=CCCC1(C)C)[C@H](O)[C@@]1(O)CC(=O)C(C(N)=O)=C(O)[C@@]1(O)C3=O`, the survivor count reads like this: (T/C endpoint: median tumor weight (est.), dose: 100.0 mg/kg/injection, schedule: Q07DX005 (ip), vehicle: saline with Tween-80) 0 of 10 on day 30; under setting [4], 0 of 10 on day 30; (T/C endpoint: median tumor weight (est.), dose: 200.0 mg/kg/injection, schedule: Q07DX005 (ip), vehicle: saline) 0 of 10 on day 30.

As for `C=CS(C=C)=NS(=O)(=O)c1ccc(C)cc1`, the T/C (T/C endpoint: median tumor weight (est.), dose: 25.0 mg/kg/injection, schedule: Q07DX005 (ip), vehicle: Klucel (hydroxypropylcellulose) (HPC), evaluated on day 30) was 141 % of control. The survivor count is given as 2 of 10 on day 30 (T/C endpoint: median tumor weight (est.), dose: 50.0 mg/kg/injection, schedule: Q07DX005 (ip), vehicle: Klucel (hydroxypropylcellulose) (HPC)) and 0 of 10 on day 30 (T/C endpoint: median tumor weight (est.), dose: 100.0 mg/kg/injection, schedule: Q07DX005 (ip), vehicle: Klucel (hydroxypropylcellulose) (HPC)).

In the case of `Nc1nc2ccc(NCc3ccc(C(=O)NC(CCC(=O)O)C(=O)O)cc3)cc2c(=O)[nH]1` (configuration not stated), the T/C (T/C endpoint: median tumor weight change, dose: 50.0 mg/kg/injection, schedule: Q01DX001 (ip), vehicle: saline with Tween-80, evaluated on day 28) is 126 % of control. For the same compound, the survivor count (T/C endpoint: median tumor weight change, dose: 200.0 mg/kg/injection, schedule: Q01DX001 (ip), vehicle: saline with Tween-80) is recorded as 5 of 10 on day 28.

For `CC1CCC(n2cnc3c(Cl)ncnc32)O1` (configuration not stated), the survivor count reads like this: (T/C endpoint: median tumor weight change, dose: 1000.0 mg/kg/injection, schedule: Q01DX001 (ip), vehicle: Klucel (hydroxypropylcellulose) (HPC)) 0 of 10 on day 27 and 1 of 10 on day 26; (T/C endpoint: median tumor weight change, dose: 2000.0 mg/kg/injection, schedule: Q01DX001 (ip), vehicle: Klucel (hydroxypropylcellulose) (HPC)) 0 of 10 on day 26 and 0 of 10 on day 27.

For the compound `CC(=O)O[C@@H]1[C@@H](O)C2=C3[C@]4(C)[C@@H]1C(C)(C)C(=O)C[C@@H]4[C@]3(O)[C@H](OC(C)=O)[C@@]1(C[C@@H]1C)C2=O`, the T/C under setting [5] was 140 % of control [9 of 10 alive].

For the compound `C[PH+](C)C.C[PH+](C)C.[Au]`, the survivor count by setting is: (T/C endpoint: median tumor weight change, dose: 25.0 mg/kg/injection, schedule: Q01DX001 (ip), vehicle: saline) 0 of 10 on day 32 and 2 of 10 on day 28; (T/C endpoint: median tumor weight change, dose: 50.0 mg/kg/injection, schedule: Q01DX001 (ip), vehicle: saline) 0 of 10 on day 28 and 0 of 10 on day 32.

`C/C(=N/NC(N)=S)c1ccc2ccccc2c1`: under setting [4], the survivor count was 3 of 10.

Take `COC(C(=O)C(O)C(C)O)C1Cc2cc3cc(OC4CC(OC(C)=O)C(OC5CC(O)C(OC)C(C)O5)C(C)O4)cc(O)c3c(O)c2C(=O)C1OC1CC(OC2CC(OC3CC(C)(O)C(OC(=O)C(C)C)C(C)O3)C(O)C(C)O2)C(O)C(C)O1` (configuration not stated): the T/C (T/C endpoint: median tumor weight (est.), dose: 0.25 mg/kg/injection, schedule: Q07DX005 (ip), vehicle: saline, evaluated on day 30) is 142 % of control.

On to `OC(CCl)CN1CC[N+]2(CC1)CC[N+]1(CCN(CC(O)CCl)CC1)CC2` (configuration not stated), for which the survivor count (T/C endpoint: median tumor weight change, dose: 1600.0 mg/kg/injection, schedule: Q01DX001 (ip), vehicle: saline) is reported as 1 of 10 on day 27.

Take `Cc1ccccc1SSc1ccccc1C`: the T/C under setting [5] is 129 % of control [9 of 10 alive].

As for `CC(C)[C@](O)(C(=O)OCC1=CCN2CC[C@@H](O)[C@@H]12)[C@H](C)O`, where the note is “T/C endpoint: median tumor weight change, dose: 500.0 mg/kg/injection, schedule: Q01DX001 (ip), vehicle: water, evaluated on day 31”, the T/C was 127 % of control. The survivor count (T/C endpoint: median tumor weight change, dose: 1000.0 mg/kg/injection, schedule: Q01DX001 (ip), vehicle: water) is reported as 1 of 10 on day 31 and the survivor count (T/C endpoint: median tumor weight change, dose: 2000.0 mg/kg/injection, schedule: Q01DX001 (ip), vehicle: water) is reported as 0 of 10 on day 31.
